According to article PMC10163288:
Some of the results follow.

B1: il2ra_site2_2erj_sap_14_mot_HHH_b1_04257_af2_000000188_0001_43_57_H_._HHH_b2_02437_0002_0000400020_0000001_0_0001_af2pred_0001_af2pred (protein)
chain: SSSSDVEERVRELLEEARELLEEGNPHRAFAVLNEAALLAAEAGDDELFEEVLKVAHKISRSSSS
B2: il2ra_site2_3nfp_normal_mot_HHH_b1_01086_000000225_0001_20_36_H_._HHH_b1_01202_0001_0001000024_0000001_0_af2pred_0001_af2pred (protein)
chain: SSSSDFHKYTLRAALLEIEVAIEAGDEELVERLIKNLEKLIKELNDEEMEERLEELKRELSSSSS
B3: il2ra_site2_3nfp_sap_21_mot_HHH_b2_05843_000000230_0001_1_19_H_._3cfacc6722bd33c9c25ec9075f684c77_0001_af2_0001_0000200034_0000001_0_0001_af2pred_0001_af2pred (protein)
chain: SSSSSDEEELRELQEKLRELLEEGDEEEAERVAKELAELASRLGDEEAYREAVSIANELESSSSS
B4: il2ra_site1_2b5i_normal_mot_22370d59370c406a0c205a431f537cfa_0001_af2_000000027_0001_1_31_H_._HHH_b2_03791_0002_0000300023_0000001_0_af2pred_dldesign_0_af2pred (protein)
chain: SSSSSPLEKAASDIVDELADKYGLDSEQYNELARLAAELVLQGVSPEEIREILEKRAEELKSSSS
B5: il2ra_site1_2b5i_normal_mot_HHH_b2_00525_af2_000000142_0001_43_56_H_._HHH_b2_02436_0001_0000400006_0000001_0_af2pred_dldesign_0_af2pred (protein)
chain: SSSSSDLRAVFEEVSRLIAEAREEEDPERRQELLDRARELAEAAKSRFLLRMVDFERESLSSSSS
B6: il2ra_site1_1z92_normal_mot_HHH_b1_03515_000000289_0001_1_19_H_._HHH_b1_01554_af2_0001_0000200013_0000001_0 (protein)
chain: SSSSSSEHAARAIVKVLVRVARLSEEQEKELQELAEELVKRGYSLLEIIKILDRVAVELSSSSSS
B7: il2ra_site1_2b5i_normal_mot_HHH_b2_06298_af2_000000056_0001_1_18_H_._HHH_b1_00536_0001_0000700045_0000001_0_af2pred_dldesign_0_af2pred (protein)
chain: SSSSSLGRLARRLLEEAEKARKNKDYEKLKELQKEVSKLVEKYKSKLLKAVLDAVQEALEESSSS
B8: il2ra_site1_1z92_normal_mot_HHH_b2_00141_000000217_0001_1_20_H_._9e5b67f2fe50fe8120620fffc4d177d6_0001_0001_0000200026_0000001_0 (protein)
chain: SLVEQIAEELERDPRFEEELARLVLKDAGGDPRFAKQYLKAIAKRAGIPPEVLERLEEIVEELVR
B9: il2ra_site1_2b5i_sap_24_mot_HHH_b1_05843_af2_000000178_0001_42_56_H_._66c2fca85847babee3b8944584cfd08f_0001_1_af2_0001_0000200021_0000001_0_0001_af2pred_0001_af … (protein)
chain: SSSSSSSKAELLREAQELLENGNPEEAQEVLEEAIERAKEKGNERTQRSLEFLLEDIRLSSSSSS
B10: il2ra_site2_3nfp_sap_18_mot_HHH_b1_03703_af2_000000206_0001_39_56_H_._HHH_b1_00697_0001_0000100006_0000001_0_0001 (protein)
chain: SSSSDEEEVEELLKELEKAIENNDPELVQRLLHRLAQLLMRIQDLEAYRVVREAYEFLDRKSSSS

molecular target: il2ra, P01589; test: yeast display titration

Apparent Kd, inactive:
B1 no binding seen, B2 no binding seen, B3 no binding seen, B4 no binding seen, B5 no binding seen, B6 no binding seen, B7 no binding seen, B8 no binding seen, B9 no binding seen, B10 no binding seen
